Laboratory results: PubChem BioAssay AID1224830 (NIAID, 2016)
Assay: 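Regulators of TLR4 signalling towards TNF-alpha in macrophage-like cells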 (primary screen). Cells: human THP-1 monocytic leukaemia cells, TNF dual-luciferase reporter clone, PMA-differentiated to macrophage-like cells. Knock-down reagent: siRNA pool against human genes, 50 nM. Time to read-out: LPS for 4 h, given about 3 days after siRNA transfection. Challenge: bacterial LPS (TLR4 ligand), 10 ng/ml. Measured: 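Ratio of firefly to renilla light, scaled to the plate median and expressed as a robust z-score per replicate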. Scale: TNF reporter robust z-score: higher = stronger TNF reporter response to LPS. Rule for the call: 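a well is active when its z-score exceeds 2.8 or falls below -1.5; control wells carry no call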.
The deposit covers about 18,000 reagents; this is a random part of them. About 2,900 of all reagents (16%) count as active. 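Calls are made per well; low scores hint the gene aids the LPS response, high scores that it dampens it.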 Repeated entries: four replicate wells of each siRNA pool.

| target | TNF reporter robust z-score | activity call |
| --- | --- | --- |
| LRRC4 | -2.03 | active |
| LRRC4 | -1.79 | active |
| LRRC4 | -1.15 | inactive |
| LRRC4 | -0.77 | inactive |
| CXCL8 | -0.76 | inactive |
| CXCL8 | -0.89 | inactive |
| CXCL8 | -0.19 | inactive |
| CXCL8 | -0.6 | inactive |
| KRT10 | 0.04 | inactive |
| KRT10 | -0.46 | inactive |
| KRT10 | -0.12 | inactive |
| KRT10 | 0.98 | inactive |
| TFB1M | -1.06 | inactive |
| TFB1M | -0.28 | inactive |
| TFB1M | -0.53 | inactive |
| TFB1M | -0.29 | inactive |
| FBXO33 | 0.01 | inactive |
| FBXO33 | -0.12 | inactive |
| FBXO33 | -1.35 | inactive |
| FBXO33 | -0.39 | inactive |
| GCGR | 0.17 | inactive |
| GCGR | 4.24 | active |
| GCGR | 0.54 | inactive |
| GCGR | 0.28 | inactive |
| DNAJC9 | 3.27 | active |
| DNAJC9 | 2.18 | inactive |
| DNAJC9 | 3.49 | active |
| DNAJC9 | 0.28 | inactive |
| TRARG1 | 0.33 | inactive |
| TRARG1 | 1.05 | inactive |
| TRARG1 | -0.03 | inactive |
| TRARG1 | 1.97 | inactive |
| SLCO1B3 | 0.16 | inactive |
| SLCO1B3 | 0.7 | inactive |
| SLCO1B3 | 0.44 | inactive |
| SLCO1B3 | 0.84 | inactive |
| NAPA | 1.73 | inactive |
| NAPA | 1.6 | inactive |
| NAPA | 1.49 | inactive |
| NAPA | 1.01 | inactive |
| UBE2V2 | -1.29 | inactive |
| UBE2V2 | 0.11 | inactive |
| UBE2V2 | -0.61 | inactive |
| UBE2V2 | -0.8 | inactive |
| PRCP | 0.07 | inactive |
| PRCP | 0.56 | inactive |
| PRCP | 0.7 | inactive |
| PRCP | 0.23 | inactive |
| RAP1GAP | 0.66 | inactive |
| RAP1GAP | 0.4 | inactive |
| RAP1GAP | 2.1 | inactive |
| RAP1GAP | 0.97 | inactive |
| MORC1 | -0.15 | inactive |
| MORC1 | 0.17 | inactive |
| MORC1 | -0.3 | inactive |
| MORC1 | -0.78 | inactive |
| KLHL23 | 0.32 | inactive |
| KLHL23 | 0.14 | inactive |
| KLHL23 | 2.45 | inactive |
| KLHL23 | 2.18 | inactive |
| GDPD3 | 0.1 | inactive |
| GDPD3 | 0.89 | inactive |
| GDPD3 | 0.67 | inactive |
| GDPD3 | 1.3 | inactive |
| OR10A5 | -1.69 | active |
| OR10A5 | -1.81 | active |
| OR10A5 | -1.94 | active |
| OR10A5 | -1.93 | active |
| ELSPBP1 | -0.72 | inactive |
| ELSPBP1 | -0.22 | inactive |
| ELSPBP1 | -0.92 | inactive |
| ELSPBP1 | 0 | inactive |
| ANOS1 | 0.65 | inactive |
| ANOS1 | 1.56 | inactive |
| ANOS1 | 0.41 | inactive |
| ANOS1 | 1.85 | inactive |
| CCDC74B | -0.25 | inactive |
| CCDC74B | 0.05 | inactive |
| CCDC74B | -1.09 | inactive |
| CCDC74B | -0.72 | inactive |
| CIDEC | 0.85 | inactive |
| CIDEC | 1.12 | inactive |
| CIDEC | 1.28 | inactive |
| CIDEC | 1.87 | inactive |
| TM4SF4 | 0.55 | inactive |
| TM4SF4 | 1.71 | inactive |
| TM4SF4 | 0.37 | inactive |
| TM4SF4 | 0.59 | inactive |
| LMO4 | -0.02 | inactive |
| LMO4 | 0.36 | inactive |
| LMO4 | 0.5 | inactive |
| LMO4 | 1.79 | inactive |
| CLPTM1 | -0.35 | inactive |
| CLPTM1 | -0.09 | inactive |
| CLPTM1 | -0.24 | inactive |
| CLPTM1 | 0.12 | inactive |
| TBXT | -1.39 | inactive |
| TBXT | -0.9 | inactive |
| TBXT | -1.56 | active |
| TBXT | -1.69 | active |
| MAP1A | 0.67 | inactive |
| MAP1A | -0.06 | inactive |
| MAP1A | 0.79 | inactive |
| MAP1A | 1.34 | inactive |
| CXCL3 | -0.66 | inactive |
| CXCL3 | -0.12 | inactive |
| CXCL3 | 0.38 | inactive |
| CXCL3 | 0.32 | inactive |
| C5orf34 | -0.52 | inactive |
| C5orf34 | -0.38 | inactive |
| C5orf34 | -1.03 | inactive |
| C5orf34 | -0.97 | inactive |

6 consecutive entries from above, quoted:
| target | TNF reporter robust z-score | activity call |
| --- | --- | --- |
| KRT10 | -0.46 | inactive |
| KRT10 | -0.12 | inactive |
| KRT10 | 0.98 | inactive |
| TFB1M | -1.06 | inactive |
| TFB1M | -0.28 | inactive |
| TFB1M | -0.53 | inactive |
